# Results are given in words; binding and its absence hold for the method and conditions named. Binding seen in cells or lysates may run through a third protein. Here binding means that the protein was enriched with, or labelled near, the bait; the list need not be complete.
# Protein sequences, listed by entry. Tags and fused reporters are not part of them. Lines headed by an entry give the natural chain unless they say otherwise; changes in a name come on top.
# UniProt O88339: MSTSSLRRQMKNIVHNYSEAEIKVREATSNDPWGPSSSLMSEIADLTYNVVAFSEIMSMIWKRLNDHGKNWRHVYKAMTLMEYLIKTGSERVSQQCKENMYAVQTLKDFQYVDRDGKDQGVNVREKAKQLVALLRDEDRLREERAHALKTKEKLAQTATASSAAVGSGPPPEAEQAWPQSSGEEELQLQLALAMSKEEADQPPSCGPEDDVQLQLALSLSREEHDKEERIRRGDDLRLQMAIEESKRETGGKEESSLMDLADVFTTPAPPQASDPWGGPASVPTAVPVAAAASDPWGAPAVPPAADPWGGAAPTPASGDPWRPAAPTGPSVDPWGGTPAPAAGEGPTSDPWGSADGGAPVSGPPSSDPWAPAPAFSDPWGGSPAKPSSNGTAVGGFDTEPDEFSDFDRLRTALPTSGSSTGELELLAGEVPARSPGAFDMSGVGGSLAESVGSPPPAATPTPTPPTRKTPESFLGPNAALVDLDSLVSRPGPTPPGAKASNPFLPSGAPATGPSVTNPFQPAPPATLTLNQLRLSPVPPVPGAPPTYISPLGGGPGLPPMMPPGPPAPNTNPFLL
# UniProt P63044: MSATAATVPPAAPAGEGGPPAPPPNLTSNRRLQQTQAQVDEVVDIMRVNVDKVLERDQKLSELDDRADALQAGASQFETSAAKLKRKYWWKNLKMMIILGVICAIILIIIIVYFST
# Target: GST-tagged ENTH domain of rat epsin 1 (rat) (UniProt O88339)
# Assay: affinity purification with mass spectrometry; GST–ENTH domain of epsin 1 as bait, mouse brain lysate; gel band analysed by mass spectroscopy; only the target purified
substance,measurement,value
"synaptobrevin 2/VAMP2 (endogenous, mouse brain) (from UniProt P63044 1-116)",binding,binds

# Source: publication PMC4161027
